# ± gives the standard deviation of the averaged measurements. The entries are a selection whose mix differs from that of the whole data set. Most values lie at the level of the controls, where differences are scatter.
# By UniProt entry, the sequences of proteins in these tests, tags left out. Where a name states a change or a piece, a line headed by the entry shows the natural chain unless it says otherwise.
# UniProt P52565: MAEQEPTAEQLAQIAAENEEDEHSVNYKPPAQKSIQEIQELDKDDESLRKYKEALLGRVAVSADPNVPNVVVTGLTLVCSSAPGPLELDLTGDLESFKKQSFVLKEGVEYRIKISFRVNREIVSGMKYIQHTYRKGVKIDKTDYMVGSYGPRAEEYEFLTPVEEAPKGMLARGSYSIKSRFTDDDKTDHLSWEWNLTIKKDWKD
# UniProt P51151: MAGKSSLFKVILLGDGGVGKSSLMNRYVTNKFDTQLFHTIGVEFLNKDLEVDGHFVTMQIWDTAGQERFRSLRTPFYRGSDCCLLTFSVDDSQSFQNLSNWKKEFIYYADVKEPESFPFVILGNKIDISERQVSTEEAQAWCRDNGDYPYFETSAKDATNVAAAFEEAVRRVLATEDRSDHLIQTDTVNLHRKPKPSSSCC
# UniProt P49327, whole entry, looked up: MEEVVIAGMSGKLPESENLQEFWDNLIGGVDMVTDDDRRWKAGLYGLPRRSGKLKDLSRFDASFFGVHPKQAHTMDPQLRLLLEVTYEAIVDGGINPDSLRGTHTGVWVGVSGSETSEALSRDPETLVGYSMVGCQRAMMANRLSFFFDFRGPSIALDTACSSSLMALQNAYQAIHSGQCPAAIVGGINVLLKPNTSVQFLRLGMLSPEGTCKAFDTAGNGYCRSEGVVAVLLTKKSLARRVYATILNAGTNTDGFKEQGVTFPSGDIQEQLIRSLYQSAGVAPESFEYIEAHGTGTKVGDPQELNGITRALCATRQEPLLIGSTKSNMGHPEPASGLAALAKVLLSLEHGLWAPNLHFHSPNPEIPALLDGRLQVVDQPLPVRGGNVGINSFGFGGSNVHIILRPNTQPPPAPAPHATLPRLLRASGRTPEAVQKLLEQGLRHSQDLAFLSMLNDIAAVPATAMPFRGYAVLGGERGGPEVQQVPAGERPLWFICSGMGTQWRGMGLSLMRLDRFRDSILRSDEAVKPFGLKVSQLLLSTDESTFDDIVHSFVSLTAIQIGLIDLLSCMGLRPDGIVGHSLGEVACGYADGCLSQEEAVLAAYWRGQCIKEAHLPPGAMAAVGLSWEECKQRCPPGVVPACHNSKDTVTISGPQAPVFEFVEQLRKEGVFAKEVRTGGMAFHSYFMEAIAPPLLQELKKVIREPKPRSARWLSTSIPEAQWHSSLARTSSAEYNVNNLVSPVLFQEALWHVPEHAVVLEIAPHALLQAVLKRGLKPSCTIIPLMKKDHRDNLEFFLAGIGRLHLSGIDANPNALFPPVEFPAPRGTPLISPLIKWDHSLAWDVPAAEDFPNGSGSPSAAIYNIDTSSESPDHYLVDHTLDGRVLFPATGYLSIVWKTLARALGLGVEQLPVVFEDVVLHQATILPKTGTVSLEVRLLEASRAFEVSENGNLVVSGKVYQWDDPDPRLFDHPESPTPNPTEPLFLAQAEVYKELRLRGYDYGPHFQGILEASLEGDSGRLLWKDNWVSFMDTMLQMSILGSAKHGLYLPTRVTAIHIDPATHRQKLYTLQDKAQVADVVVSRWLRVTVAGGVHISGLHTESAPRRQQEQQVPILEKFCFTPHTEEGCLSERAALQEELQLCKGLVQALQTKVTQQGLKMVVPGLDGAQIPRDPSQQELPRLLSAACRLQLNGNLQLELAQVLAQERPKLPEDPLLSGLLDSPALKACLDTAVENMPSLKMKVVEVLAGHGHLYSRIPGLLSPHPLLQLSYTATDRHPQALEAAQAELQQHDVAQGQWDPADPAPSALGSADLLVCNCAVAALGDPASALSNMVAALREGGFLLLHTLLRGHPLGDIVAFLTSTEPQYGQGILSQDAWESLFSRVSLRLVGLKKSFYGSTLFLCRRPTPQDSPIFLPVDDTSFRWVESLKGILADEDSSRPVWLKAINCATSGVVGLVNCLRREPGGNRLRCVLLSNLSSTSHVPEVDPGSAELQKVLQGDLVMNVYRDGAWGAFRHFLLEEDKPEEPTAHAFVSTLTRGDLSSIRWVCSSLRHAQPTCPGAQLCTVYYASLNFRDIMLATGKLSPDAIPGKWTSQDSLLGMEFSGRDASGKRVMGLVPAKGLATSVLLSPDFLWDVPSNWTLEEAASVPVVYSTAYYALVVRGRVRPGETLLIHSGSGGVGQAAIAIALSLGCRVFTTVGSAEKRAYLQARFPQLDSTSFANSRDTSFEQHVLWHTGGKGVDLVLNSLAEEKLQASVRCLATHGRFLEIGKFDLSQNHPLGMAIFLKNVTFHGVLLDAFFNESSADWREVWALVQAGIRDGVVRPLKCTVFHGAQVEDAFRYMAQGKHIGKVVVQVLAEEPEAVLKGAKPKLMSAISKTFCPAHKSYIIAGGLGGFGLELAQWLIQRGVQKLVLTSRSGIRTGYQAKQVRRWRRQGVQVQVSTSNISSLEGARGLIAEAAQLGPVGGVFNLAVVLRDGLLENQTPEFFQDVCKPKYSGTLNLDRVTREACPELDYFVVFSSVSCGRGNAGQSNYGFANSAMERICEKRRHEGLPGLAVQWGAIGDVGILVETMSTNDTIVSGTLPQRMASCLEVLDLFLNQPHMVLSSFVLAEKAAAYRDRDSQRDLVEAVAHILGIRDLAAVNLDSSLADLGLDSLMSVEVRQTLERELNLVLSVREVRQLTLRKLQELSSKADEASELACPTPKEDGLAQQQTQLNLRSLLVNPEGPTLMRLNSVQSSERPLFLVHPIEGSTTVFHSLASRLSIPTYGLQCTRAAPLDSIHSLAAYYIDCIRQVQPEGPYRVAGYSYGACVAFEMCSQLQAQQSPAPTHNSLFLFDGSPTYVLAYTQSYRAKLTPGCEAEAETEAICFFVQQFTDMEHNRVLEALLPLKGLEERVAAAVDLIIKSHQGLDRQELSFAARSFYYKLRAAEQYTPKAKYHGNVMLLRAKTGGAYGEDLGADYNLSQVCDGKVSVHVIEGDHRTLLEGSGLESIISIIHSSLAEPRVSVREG
# UniProt P51692: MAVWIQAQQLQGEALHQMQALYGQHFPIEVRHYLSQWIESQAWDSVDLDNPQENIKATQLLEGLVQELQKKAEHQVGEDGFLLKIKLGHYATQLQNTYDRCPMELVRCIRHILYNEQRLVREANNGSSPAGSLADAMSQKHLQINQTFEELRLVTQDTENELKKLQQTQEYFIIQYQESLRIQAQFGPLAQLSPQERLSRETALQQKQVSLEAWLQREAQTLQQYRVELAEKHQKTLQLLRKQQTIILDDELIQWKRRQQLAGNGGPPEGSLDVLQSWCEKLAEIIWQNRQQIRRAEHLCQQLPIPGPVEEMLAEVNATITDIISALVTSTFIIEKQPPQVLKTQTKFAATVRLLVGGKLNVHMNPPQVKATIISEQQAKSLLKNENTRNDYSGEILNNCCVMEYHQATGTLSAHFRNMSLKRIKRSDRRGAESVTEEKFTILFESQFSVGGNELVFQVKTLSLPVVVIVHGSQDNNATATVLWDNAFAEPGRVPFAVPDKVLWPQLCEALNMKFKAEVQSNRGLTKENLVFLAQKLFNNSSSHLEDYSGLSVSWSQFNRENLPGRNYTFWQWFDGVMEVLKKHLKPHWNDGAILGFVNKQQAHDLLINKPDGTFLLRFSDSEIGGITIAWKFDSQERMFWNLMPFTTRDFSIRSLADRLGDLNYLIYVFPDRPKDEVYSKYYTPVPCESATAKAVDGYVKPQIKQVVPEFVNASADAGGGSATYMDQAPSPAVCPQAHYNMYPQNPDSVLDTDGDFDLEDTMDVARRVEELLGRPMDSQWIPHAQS
# UniProt P49458: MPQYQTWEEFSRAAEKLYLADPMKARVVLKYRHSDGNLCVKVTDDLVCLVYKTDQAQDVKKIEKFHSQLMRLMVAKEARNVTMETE
# UniProt P50219: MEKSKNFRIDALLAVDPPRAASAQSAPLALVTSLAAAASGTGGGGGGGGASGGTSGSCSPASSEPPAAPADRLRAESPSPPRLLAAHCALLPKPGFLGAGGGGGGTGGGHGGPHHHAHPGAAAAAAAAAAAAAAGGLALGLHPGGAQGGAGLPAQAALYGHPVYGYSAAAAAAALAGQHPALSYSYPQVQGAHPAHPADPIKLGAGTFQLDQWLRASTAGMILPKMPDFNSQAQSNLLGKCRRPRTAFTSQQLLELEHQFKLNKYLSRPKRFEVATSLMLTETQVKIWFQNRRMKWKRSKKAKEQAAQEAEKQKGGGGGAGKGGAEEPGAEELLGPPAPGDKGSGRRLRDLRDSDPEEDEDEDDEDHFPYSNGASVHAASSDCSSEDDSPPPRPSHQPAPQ
# UniProt P42338: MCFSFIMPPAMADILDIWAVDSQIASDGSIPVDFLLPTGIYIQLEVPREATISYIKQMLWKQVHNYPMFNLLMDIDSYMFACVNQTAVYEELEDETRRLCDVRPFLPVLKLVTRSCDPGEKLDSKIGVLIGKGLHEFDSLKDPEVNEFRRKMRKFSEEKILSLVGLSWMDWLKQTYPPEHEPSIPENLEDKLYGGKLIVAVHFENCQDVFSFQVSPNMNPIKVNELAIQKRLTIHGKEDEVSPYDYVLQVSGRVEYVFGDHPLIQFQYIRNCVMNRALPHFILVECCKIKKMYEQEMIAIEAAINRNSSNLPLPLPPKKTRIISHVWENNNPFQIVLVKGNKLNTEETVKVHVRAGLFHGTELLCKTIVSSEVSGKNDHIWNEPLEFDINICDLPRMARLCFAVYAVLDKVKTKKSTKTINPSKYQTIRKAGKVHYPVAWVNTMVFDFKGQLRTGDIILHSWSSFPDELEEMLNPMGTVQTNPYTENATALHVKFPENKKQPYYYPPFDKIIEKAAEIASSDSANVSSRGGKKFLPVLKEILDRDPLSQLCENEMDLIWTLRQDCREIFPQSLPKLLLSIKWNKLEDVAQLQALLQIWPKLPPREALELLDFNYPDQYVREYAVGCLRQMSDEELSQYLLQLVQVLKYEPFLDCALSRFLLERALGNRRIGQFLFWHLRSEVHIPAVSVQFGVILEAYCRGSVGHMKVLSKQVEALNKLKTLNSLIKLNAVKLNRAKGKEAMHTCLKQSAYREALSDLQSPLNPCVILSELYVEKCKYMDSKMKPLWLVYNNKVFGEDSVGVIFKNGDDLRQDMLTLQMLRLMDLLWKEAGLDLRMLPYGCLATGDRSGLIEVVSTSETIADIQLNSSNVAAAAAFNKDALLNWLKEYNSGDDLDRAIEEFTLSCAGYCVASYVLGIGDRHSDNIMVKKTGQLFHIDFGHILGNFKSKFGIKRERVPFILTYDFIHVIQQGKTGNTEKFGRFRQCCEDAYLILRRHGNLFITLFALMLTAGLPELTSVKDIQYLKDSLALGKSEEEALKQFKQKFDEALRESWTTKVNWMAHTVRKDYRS
# UniProt P52306: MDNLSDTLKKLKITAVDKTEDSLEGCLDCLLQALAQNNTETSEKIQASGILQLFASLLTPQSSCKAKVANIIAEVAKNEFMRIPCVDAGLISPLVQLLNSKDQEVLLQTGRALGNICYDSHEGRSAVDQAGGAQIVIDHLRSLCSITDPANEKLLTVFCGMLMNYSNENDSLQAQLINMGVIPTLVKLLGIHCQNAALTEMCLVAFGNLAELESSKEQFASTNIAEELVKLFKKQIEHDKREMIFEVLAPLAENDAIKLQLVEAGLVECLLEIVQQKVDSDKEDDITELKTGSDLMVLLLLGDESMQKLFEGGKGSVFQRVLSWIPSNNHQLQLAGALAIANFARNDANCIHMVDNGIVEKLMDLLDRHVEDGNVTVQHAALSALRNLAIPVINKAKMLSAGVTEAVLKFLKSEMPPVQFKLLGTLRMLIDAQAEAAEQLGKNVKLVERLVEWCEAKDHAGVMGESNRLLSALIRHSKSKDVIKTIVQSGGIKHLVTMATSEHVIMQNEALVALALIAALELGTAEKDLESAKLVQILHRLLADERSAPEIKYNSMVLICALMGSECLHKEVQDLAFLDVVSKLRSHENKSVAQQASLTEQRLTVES
# UniProt P41743, whole entry: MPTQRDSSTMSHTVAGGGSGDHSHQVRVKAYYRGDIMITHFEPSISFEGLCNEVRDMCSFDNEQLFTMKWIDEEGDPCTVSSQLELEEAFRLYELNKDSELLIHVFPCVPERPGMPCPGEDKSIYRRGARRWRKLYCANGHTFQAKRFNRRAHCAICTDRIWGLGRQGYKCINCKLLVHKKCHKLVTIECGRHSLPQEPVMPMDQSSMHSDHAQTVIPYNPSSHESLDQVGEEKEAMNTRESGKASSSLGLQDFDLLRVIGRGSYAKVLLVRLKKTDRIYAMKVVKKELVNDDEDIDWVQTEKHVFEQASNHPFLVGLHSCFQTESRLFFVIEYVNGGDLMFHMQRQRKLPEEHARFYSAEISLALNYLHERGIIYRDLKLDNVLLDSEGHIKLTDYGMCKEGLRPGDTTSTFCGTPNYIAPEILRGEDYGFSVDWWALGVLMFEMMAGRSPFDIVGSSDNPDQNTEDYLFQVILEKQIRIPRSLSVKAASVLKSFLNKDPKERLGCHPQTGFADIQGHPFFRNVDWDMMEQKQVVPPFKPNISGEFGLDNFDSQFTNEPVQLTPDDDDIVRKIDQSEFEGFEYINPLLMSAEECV
# Compound: Nc1ncnc2c1ncn2[C@@H]1O[C@H](COP(=O)(O)OP(=O)(O)OP(=O)(O)O)[C@@H](O)[C@H]1O [adenosine triphosphate]
# Experiment: NP40-soluble protein abundance relative to vehicle (solubility fold change) (ratio); higher = more soluble protein in presence of ATP
# Settings: concentration: 0.1mM
# How it was run: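 Jurkat crude lysate (Dounce-homogenised) was treated with eight concentrations from 0.1 to 10 mM for 10 min at room temperature, then 3 min at 37 °C. It was solubilised with 0.8% NP40 and benzonase (60 min, 4 °C) and ultracentrifuged, and the supernatant was TMT-labelled for LC-MS/MS. Intensities were vsn-normalised, and the value is the fold change against the NP40-processed vehicle per replicate, from three independent experiments.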
row,Target,NP40-soluble protein abundance
1,ARHGDIA (UniProt P52565),0.979 ± 0.055
2,CASP2 (UniProt P42575),1.04 ± 0.11
3,UniProt P48739 and related entries,1.03 ± 0.085
4,RPL28 (UniProt P46779),0.913 ± 0.13
5,RAB9A (UniProt P51151),1.05 ± 0.033
6,FASN (UniProt P49327),1.05 ± 0.082
7,UniProt P50995 and related entries,0.9849 ± 0.0039
8,PPM1A (UniProt P35813),1.01 ± 0.054
9,STAT5B (UniProt P51692),1.04 ± 0.022
10,PRKX (UniProt P51817),0.957 ± 0.021
11,USP8 (UniProt P40818),1.02 ± 0.026
12,UniProt P52630 and related entries,1.06 ± 0.062
13,PSMB2 (UniProt P49721),0.959 ± 0.035
14,MAPKAPK2 (UniProt P49137),1.01 ± 0.011
15,UniProt P36639 and related entries,1.03 ± 0.052
16,UniProt P40429 and related entries,0.954 ± 0.12
17,HNRNPF (UniProt P52597),1.04 ± 0.043
18,UniProt P50548 and related entries,1.03 ± 0.18
19,SRP9 (UniProt P49458),0.962 ± 0.043

row,Target,NP40-soluble protein abundance
1,PSMD7 (UniProt P51665),0.991 ± 0.061
2,RPS19 (UniProt P39019),0.828 ± 0.19
3,FEN1 (UniProt P39748),1.01 ± 0.02
4,UniProt P50219 and related entries,0.83 ± 0.21
5,MDH2 (UniProt P40926),0.996 ± 0.046
6,CCNH (UniProt P51946),1.02 ± 0.042
7,PBX2 (UniProt P40425),0.985 ± 0.12
8,UniProt P50570-4|P50570,1.04 ± 0.079
9,UniProt P51795-2|P51795,1.08 ± 0.069
10,UniProt P48729 and related entries,1.05 ± 0.075
11,NDUFA8 (UniProt P51970),0.974 ± 0.063
12,PIK3CB (UniProt P42338),1.07 ± 0.16
13,UniProt P50053-2,1.04 ± 0.011
14,UniProt P49336 and related entries,1.02 ± 0.067
15,UniProt P52306 and related entries,0.973 ± 0.065
16,GTF2A1 (UniProt P52655),0.989 ± 0.14
17,UniProt P51991 and related entries,1.01 ± 0.094
18,UniProt P41743,1.05 ± 0.079
19,MCM2 (UniProt P49736),1.02 ± 0.066

# Same assay, conditions: concentration: 0.5mM
row,Target,NP40-soluble protein abundance
1,ARHGDIA (UniProt P52565),1.02 ± 0.042
2,CASP2 (UniProt P42575),1.07 ± 0.14
3,UniProt P48739 and related entries,1.05 ± 0.057
4,RPL28 (UniProt P46779),0.873 ± 0.17
5,RAB9A (UniProt P51151),1.01 ± 0.091
6,FASN (UniProt P49327),1.02 ± 0.017
7,UniProt P50995 and related entries,0.96 ± 0.021
8,PPM1A (UniProt P35813),1.01 ± 0.051
9,STAT5B (UniProt P51692),1.02 ± 0.017
10,PRKX (UniProt P51817),1.04 ± 0.03
11,USP8 (UniProt P40818),1.02 ± 0.045
12,UniProt P52630 and related entries,1.01 ± 0.056
13,PSMB2 (UniProt P49721),0.962 ± 0.026
14,MAPKAPK2 (UniProt P49137),0.99 ± 0.049
15,UniProt P36639 and related entries,1.05 ± 0.054
16,UniProt P40429 and related entries,0.974 ± 0.063
17,HNRNPF (UniProt P52597),1.05 ± 0.07
18,UniProt P50548 and related entries,1.04 ± 0.074
19,SRP9 (UniProt P49458),0.927 ± 0.14

row,Target,NP40-soluble protein abundance
1,PSMD7 (UniProt P51665),0.987 ± 0.032
2,RPS19 (UniProt P39019),0.795 ± 0.18
3,FEN1 (UniProt P39748),1.01 ± 0.042
4,UniProt P50219 and related entries,0.855 ± 0.17
5,MDH2 (UniProt P40926),1.01 ± 0.055
6,CCNH (UniProt P51946),1.04 ± 0.05
7,PBX2 (UniProt P40425),0.973 ± 0.12
8,UniProt P50570-4|P50570,1.06 ± 0.091
9,UniProt P51795-2|P51795,0.986 ± 0.037
10,UniProt P48729 and related entries,1.08 ± 0.071
11,NDUFA8 (UniProt P51970),0.938 ± 0.06
12,PIK3CB (UniProt P42338),1.14 ± 0.11
13,UniProt P50053-2,1.03 ± 0.062
14,UniProt P49336 and related entries,1.03 ± 0.029
15,UniProt P52306 and related entries,0.944 ± 0.033
16,GTF2A1 (UniProt P52655),0.908 ± 0.15
17,UniProt P51991 and related entries,1.1 ± 0.1
18,UniProt P41743,1.06 ± 0.077
19,MCM2 (UniProt P49736),1.01 ± 0.056

# Reference: the supplement of paper PMC6411743
